# Results as given in PubChem BioAssay (Tox21).
# Values joined by “and” are separate entries in the source; they are usually repeats but may differ in a detail not shown here. Equal entries are not always repeated. The shares of active, inactive and inconclusive entries below differ from those in the screen. A potency beside an inconclusive call is a rough fit, not a confirmed value. Active and inactive are the calls of the source. The call rests on the fitted dose curve; in most records, active means well fitted cell-killing curve with a large enough effect in the repeat runs; inconclusive means weak or mixed curves, or effect the other way; inactive means flat fitted curve, though single readings scatter.
# Test: cAMP Responsive Elements (CRE) small molecule agonists, cell-based qHTS assay: qHTS cell viability counter screen (AID 2060914); further: nearly all actives have a fitted effect of over 50% in size
# Conditions: CRE-bla HEK293T viability, CellTiter-Glo luminescence, 5 h; series mostly up to 92.4 µM; activity change, negative = cytotoxicity: at the top concentration
# How it was run: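 Cytotoxicity counter screen multiplexed with the CRE-bla reporter assay in HEK 293T cells: 3 h compound exposure at 37 °C, followed by CellTiter-Glo luminescence measured in the same wells.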
# On the % scale 0 is the no-effect control and ±100 the full control effect; potency means the concentration at half of the fitted maximal effect.
Structure (SMILES),Potency,"activity change, negative = cytotoxicity"
Cc1ccc2oc(CN(Cc3ccccc3)C(=O)Nc3c(F)cc(F)cc3F)c(-c3ccc(Cl)cc3)c2c1,"inconclusive: 66.4 µM [cytotoxic, partial curve, poor fit]",–
O=S(c1cc(Cl)cc(Cl)c1O)c1cc(Cl)cc(Cl)c1O,"inconclusive: 7.5 µM [cytotoxic, single point]",–
CC(C)=CC(=O)O,–,inactive: 6.84%
CC(=O)c1sc(C)nc1C,–,inactive: -2%
COS(C)(=O)=O,"inconclusive: 5.04 µM [cytotoxic, single point]",–
CCSCC,–,inactive: 17.1%
O=C(O)c1cccc(O)c1,"inconclusive: 6.91 µM [cytotoxic, partial curve, poor fit]",–
CN1CCCN(C(c2ccccc2)c2ccc(Cl)cc2)CC1 (configuration not stated),"inconclusive: 0.668 µM [cytotoxic, single point]",–
O=C(O)c1cccnc1Nc1cccc(C(F)(F)F)c1,"inconclusive: 11.9 µM [cytotoxic, partial curve, poor fit]",–
Cc1c(N=C=O)cccc1N=C=O,–,inactive: 14.5%
Nc1nnc(-c2cccc(Cl)c2Cl)c(N)n1,–,inactive: 16.7% [at 42.5 µM]
CCC(C)(C)C1CCC(O)CC1 (configuration not stated),"inconclusive: 6.86 µM [cytotoxic, single point]",–
CCOC(=O)c1ccc(OCCN2C[C@H](O)[C@@H](O)[C@H](O)[C@H]2CO)cc1,–,inactive: 12% [at 42.5 µM]
NC(=O)c1cccnc1,"inconclusive: 2.39 µM [cytotoxic, single point] and inconclusive: 106 nM [cytotoxic, single point]",–
CC(C)(c1cc(Br)c(OCCO)c(Br)c1)c1cc(Br)c(OCCO)c(Br)c1,inconclusive: 59.7 µM [cytotoxic],–
Cc1nc(-c2ccccn2)ncc1C(=O)Nn1cc(C)c2cc(F)ccc21,"inconclusive: 0.611 µM [cytotoxic, full curve, poor fit]",–
CNc1c2c(nn1C)CCCC2,"inconclusive: 3.76 µM [cytotoxic, partial curve, poor fit]",–
COC(=O)CC(C)CCC=C(C)C (configuration not stated),–,inactive: -0.545%
COc1ccc(OC)c(Cl)c1,"inconclusive: 0.243 µM [cytotoxic, single point]",–
CCO[Si](CCCSSSSCCC[Si](OCC)(OCC)OCC)(OCC)OCC,–,inactive: -21%
S=c1[nH][nH]c(=S)s1,"inconclusive: 27.3 µM [cytotoxic, single point]",–
CC(C)C(=O)OCc1ccccc1,–,inactive: -5.8%
Cc1c(Cn2ccnc2)c2ccccc2n1CCC(=O)O,"inconclusive: 13.3 µM [rising, single point]",–
O=C(O)c1cc(-c2ccccc2)nc2ccccc12,"inconclusive: 31 µM [cytotoxic, single point]",–
CCOC(=O)c1ncn2c1CN(C)C(=O)c1cc(F)ccc1-2,–,inactive: -10.5% [at 42.5 µM]
CC/C=C\CCOC(=O)c1ccccc1,"inconclusive: 0.0019 µM [rising, full curve, poor fit]",–
CO[C@@]12[C@H](COC(N)=O)C3=C(C(=O)C(C)=C(N)C3=O)N1C[C@@H]1N[C@@H]12,"inconclusive: 0.944 µM [cytotoxic, single point]",–

# Laid out differently: entries from further up
Structure (SMILES) | Potency | activity change, negative = cytotoxicity
CCSCC | – | inactive: 17.1%
O=C(O)c1cccc(O)c1 | inconclusive: 6.91 µM [cytotoxic, partial curve, poor fit] | –
